# Assay results taken from PubChem BioAssay AID504467 (National Center for Advancing Translational Sciences (NCATS), 2011).
# Out of some 330,000 compounds screened, about 7,700 (2.3%) were called active. Inconclusive means that the source gave no clear call. Such entries were picked first, then a sample of the others. Calls follow the shape of the dose curve; as a rule, active = well fitted inhibition curve with a large enough effect; inconclusive = small, poorly fitted or top-dose-only effect, or effect the other way; inactive = flat fitted curve, though single readings scatter. Potencies of inconclusive entries are doubtful fits and often do not repeat.
# Assay: qHTS screen for small molecules that inhibit ELG1-dependent DNA repair in human embryonic kidney (HEK293T) cells expressing luciferase-tagged ELG1; also: nearly all actives have a fitted effect of over 55% in size
# Details: HEK293T ELG1-luciferase reporter, luminescence, 16 h, DNA damage induced by 5-fluorouridine; activity change, negative = inhibition: at 46.1 µM (top of the series)
# Outline: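 Cells (2,000 per well) received 5-fluorouridine plus test compound or DMSO and were incubated 16 hr at 37 °C, 5% CO2. Luciferase activity was read by luminescence 30 min after ONE-Glo addition; signal suppression marked inhibition of damage-induced ELG1 function.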
# % is scaled to controls: 0 for no effect and ±100 for the full control effect; potency is read from the fitted curve at half-maximal effect.
SMILES,"activity change, negative = inhibition",Potency
COCCn1c(SCC(=O)Nc2ccc(S(N)(=O)=O)cc2)nc2ccccc21,inactive: -19.2%,–
O=C(c1cc(-c2cccc(Cl)c2)nc2ccccc12)N1CCN(c2ccccn2)CC1,–,active: 23.1 µM
CCCCN(CC)CCCNC(=O)CN1C(=O)CSc2ccc(S(=O)(=O)N3CCOCC3)cc21,–,"inconclusive: 14.6 µM [activator, partial curve, poor fit]"
O=C(Cc1ccc(Cl)cc1)Oc1cccc2cccnc12,inactive: 0.758%,–
CC(=O)c1ccc2c(ccc3ccccc32)c1,–,"inconclusive: 1.64 µM [activator, partial curve, poor fit]"
CCOC(=O)c1cnc2c(c(C)nn2C)c1Oc1cc(Cl)cc(Cl)c1,–,"inconclusive: 18.3 µM [inhibitor, single point]"
COc1ccccc1NS(=O)(=O)c1cc2c3c(c1)CCN3C(=O)CC2,–,"inconclusive: 23.1 µM [activator, single point]"
Cn1c(=O)[nH]c(=O)c2c1nc(Sc1nc3ccccc3s1)n2Cc1ccccc1,–,"inconclusive: 23.1 µM [inhibitor, single point]"
COc1cccc2c1OCC(CN1CCN(Cc3ccccc3)C(CCO)C1)=C2 (stereo not drawn),inactive: -8.73%,–
C=CCNC(=S)Nc1ccc2cn[nH]c2c1,–,"inconclusive: 25.9 µM [inhibitor, single point]"
COc1ccc(C(=O)N2CCC(C(=O)c3ccc(F)cc3)CC2)cc1,–,"inconclusive: 20.6 µM [inhibitor, partial curve]"
O=C(NC(=S)Nc1ccc(CN2CCOCC2)cc1)c1ccc(-c2ccc(Cl)cc2)o1,–,"inconclusive: 4.61 µM [inhibitor, partial curve, poor fit]"
CCCc1sc(N/N=C/c2ccccn2)nc1-c1ccc(F)cc1,–,"inconclusive: 2.91 µM [inhibitor, partial curve, poor fit]"
Cn1ncc(Br)c1C(=O)NC1CCCCC1,inactive: -11.4%,–
CCOC(=O)c1[nH]nc(-c2cc(CC)c(O)cc2O)c1-c1cscn1,–,"inconclusive: 7.31 µM [inhibitor, partial curve]"
Cc1cc(C)nc(SCc2ccc(C(=O)N/N=C/c3ccccc3C(=O)O)cc2)n1,inactive: 3.35%,–
COc1nc(Nc2nc3ccccc3c(=O)[nH]2)nc2ccc(C)cc12,–,active: 4.61 µM
COc1cc(NC(=O)c2nn(C)c3c2CS(=O)(=O)c2ccccc2-3)cc(OC)c1,–,"inconclusive: 29.1 µM [inhibitor, single point]"
O=S(=O)(Nc1cccc(-c2ccc3nncn3n2)c1)c1ccc(Cl)s1,inactive: 11.5%,–
CCOc1ccc(NC(=O)COC(=O)c2ncc(Cl)c(Cl)c2Cl)cc1,inactive: 1.43%,–
O=C(CCc1nc(-c2ccccc2F)no1)NCc1ccco1,inactive: 11.2%,–
COc1cc(OC)cc(-c2c(C#Cc3ccsc3)c3cc(-c4ccc(C(N)=O)cc4)ccc3n2C)c1,–,"inconclusive: 6.51 µM [inhibitor, partial curve, poor fit]"
COc1ccc(CNC(=O)C(C)N(Cc2ccccc2OC)C(=O)c2snc(C(N)=O)c2N)cc1 (stereo not drawn),–,"inconclusive: 20.6 µM [inhibitor, partial curve]"

SMILES,"activity change, negative = inhibition",Potency
Cc1ccc(-c2nc(SC(C)C(=O)c3c(N)n(C)c(=O)n(C)c3=O)n[nH]2)cc1 (stereo not drawn),–,"inconclusive: 25.9 µM [inhibitor, single point]"
Cc1ccc(C(=O)Nc2ccc3ncccc3c2)cc1,–,"inconclusive: 0.461 µM [activator, partial curve]"
CC(C)(C)CC(=O)N1CCC(c2nc3c(nnn3Cc3c(F)cccc3Cl)c(=O)[nH]2)CC1,–,active: 16.4 µM
CC(C)(O)C#Cc1ccc(C(=O)N2CCN(c3ccc([N+](=O)[O-])cc3)CC2)cc1,–,"inconclusive: 29.1 µM [inhibitor, single point]"
O=C(NNC(=S)Nc1ccc(Cl)cc1Cl)c1cccnc1,–,"inconclusive: 16.4 µM [activator, single point]"
COc1nc(NCc2ccco2)nc(NC2CCCCC2)n1,–,"inconclusive: 23.1 µM [activator, partial curve]"
C[C@@H](NC(=O)c1nc[nH]c1C(=O)NCC(=O)OCc1ccccc1)c1ccccc1,inactive: -22.9%,–
c1coc(CNc2nc3ccccc3s2)c1,–,"inconclusive: 7.3 µM [activator, partial curve]"
C/C(=N\NC(=O)c1ccco1)c1ccc(C(=O)O)s1,inactive: 27.1%,–
CC1CCN(C(=O)COC(=O)c2n[nH]c(=O)c3ccccc23)CC1,–,"inconclusive: 18.3 µM [activator, single point]"
COc1ccccc1NC(=O)CSc1nnc(C2CCCCC2)n1-c1ccccc1,–,"inconclusive: 23.1 µM [inhibitor, partial curve]"
CCCCOC(=O)c1ccc(NC(=S)N2CCN(c3ncc4c(=O)c(C(=O)O)cn(CC)c4n3)CC2)cc1,–,"inconclusive: 29.1 µM [inhibitor, single point]"
CCCc1nc2ccccc2c(=O)n1NC(=O)c1c(O)c2cccc3c2n(c1=O)CCC3,–,"inconclusive: 14.6 µM [inhibitor, single point]"
CCN(CC)S(=O)(=O)c1ccc(O)c(NS(=O)(=O)c2ccccc2F)c1,inactive: 8.44%,–
CC1C(=O)NN=C1C(=O)N/N=C/c1cccs1 (stereo not drawn),–,"inconclusive: 20.6 µM [activator, single point]"
Cc1coc2c(C)c3oc(=O)c(CCC(=O)N[C@@H](C)C(=O)N[C@@H](Cc4ccccc4)C(=O)O)c(C)c3cc12,inactive: -0.631%,–
CNC(=O)/C(C#N)=C/c1c(N(Cc2ccccc2)Cc2ccccc2)nc2ccccn2c1=O,–,active: 18.4 µM
COCCn1c(SCc2cccc(F)c2)nc2cc(C(=O)OC)ccc2c1=O,–,"inconclusive: 20.6 µM [inhibitor, partial curve, poor fit]"
COc1ccccc1NS(=O)(=O)c1cccc(C(=O)OCc2nc3ccccc3s2)c1,–,"inconclusive: 16.4 µM [activator, partial curve]"
Cc1cc(-c2nc3ncccc3o2)ccc1N,–,"inconclusive: 5.17 µM [activator, partial curve]"
CC(C)Cn1c(N)c(C(=O)CSc2nnc(C3CC3)n2C2CC2)c(=O)n(C)c1=O,inactive: 0.0828%,–
CC(=O)c1ccc(NC(=S)NNC(=O)c2ccncc2)cc1,–,"inconclusive: 29.1 µM [activator, single point]"
COc1cc(NC(=O)C2CC(c3c(F)cccc3Cl)=NO2)cc(OC)c1OC (stereo not drawn),–,"inconclusive: 20.6 µM [inhibitor, partial curve, poor fit]"

# Not a retest: an excerpt of the list.
SMILES,"activity change, negative = inhibition",Potency
CCCCOC(=O)c1ccc(NC(=S)N2CCN(c3ncc4c(=O)c(C(=O)O)cn(CC)c4n3)CC2)cc1,–,"inconclusive: 29.1 µM [inhibitor, single point]"
CCCc1nc2ccccc2c(=O)n1NC(=O)c1c(O)c2cccc3c2n(c1=O)CCC3,–,"inconclusive: 14.6 µM [inhibitor, single point]"

# More results

SMILES,"activity change, negative = inhibition",Potency
COc1ccc(/C=N/NC(=O)c2nc(-c3ccccc3)n(-c3ccccc3)n2)cc1OC,–,active: 13 µM
O=C(CNc1ccc(F)cc1)N/N=C/C1CC=CCC1 (stereo not drawn),–,"inconclusive: 32.6 µM [activator, partial curve, poor fit]"
CC(=O)c1cnc2cc(C)nn2c1C,inactive: 12.4%,–
CC(=O)N1CCN(CC(=O)Nc2cc(S(=O)(=O)N3CCCCC3)ccc2C)CC1,–,"inconclusive: 9.2 µM [activator, partial curve]"
O=C(NC1CCCCC1)C1Cc2ccccc2CN1S(=O)(=O)c1ccc(F)cc1 (stereo not drawn),–,"inconclusive: 14.6 µM [inhibitor, partial curve, poor fit]"
NS(=O)(=O)c1ccc(N2N=C(c3ccccc3)CC2c2ccccc2)cc1 (stereo not drawn),–,"inconclusive: 16.4 µM [inhibitor, partial curve]"
CN(C)C(=O)Cn1cnc2c(cnn2-c2ccc(F)cc2)c1=O,inactive: 1.32%,–
CCOC(=O)COc1ccc(/C=C/[N+](=O)[O-])c(OCC(=O)OCC)c1,–,"inconclusive: 29.1 µM [inhibitor, single point]"
CCC(C)(C)C1CCc2nc3ccccc3c(C(=O)OC(C)C(=O)Nc3c(C)n(C)n(-c4ccccc4)c3=O)c2C1 (stereo not drawn),–,active: 4.11 µM
C/C(=N\NC(=O)c1ccccc1Cl)c1ccccn1,–,"inconclusive: 14.6 µM [activator, partial curve]"
COC(=O)Nc1cc([N+](=O)[O-])ccc1OC,–,"inconclusive: 23.1 µM [activator, single point]"
O=C1/C(=C\c2cccs2)Sc2ccc3ccccc3c21,–,"inconclusive: 3.26 µM [activator, partial curve]"
CC1=CC(=Nc2c(C)n(C)n(-c3ccccc3)c2=O)C=CC1=O,inactive: -9.29%,–
O=C(/C=C/c1ccc2c(c1)OCO2)NC1CCCC1,–,"inconclusive: 12.6 µM [activator, partial curve]"
COc1ccccc1CCNC(=O)c1c(C)nn(CC(C)C)c1Cl,–,"inconclusive: 25.9 µM [activator, single point]"
CC(C)(C)N(Cc1ccccc1)C(=O)COC(=O)c1ccccc1SCC(=O)N1CCCC1,–,"inconclusive: 20.6 µM [inhibitor, single point]"
Cc1ccc(NC(=O)CSCC(=O)NCc2cccc(C(F)(F)F)c2)cc1,inactive: 4.99%,–
CC(/C=C1\SC(=O)N(CC(=O)Nc2ccc(O)cc2)C1=O)=C\c1ccccc1,–,"inconclusive: 23.1 µM [inhibitor, single point]"
C[C@H](NC(=O)CCCn1nnc2ccccc2c1=O)C(=O)O,–,"inconclusive: 16.4 µM [activator, partial curve]"
O=C(c1ccc(F)cc1F)C1CCN(c2ccc([N+](=O)[O-])cn2)CC1,–,"inconclusive: 5.8 µM [inhibitor, partial curve, poor fit]"
COc1ccc(-c2nnc(-c3ccc(C)cc3)o2)cc1,–,"inconclusive: 8.2 µM [activator, partial curve]"
O=C(Cn1cc(Br)ccc1=O)Nc1ccc2c(c1)OCO2,–,"inconclusive: 7.08 µM [activator, partial curve]"
